According to US7129072:
Results are given in words; binding and its absence hold for the method and conditions named. Some results given as binding are weak or reduced against the parent protein; the word gives no strength.

Sequences of proteins named here, by UniProt entry; tags and fusion partners are left off. A change or cut given only in a name is not applied to a line headed by its entry. Residues count along the entry.
UniProt P11362: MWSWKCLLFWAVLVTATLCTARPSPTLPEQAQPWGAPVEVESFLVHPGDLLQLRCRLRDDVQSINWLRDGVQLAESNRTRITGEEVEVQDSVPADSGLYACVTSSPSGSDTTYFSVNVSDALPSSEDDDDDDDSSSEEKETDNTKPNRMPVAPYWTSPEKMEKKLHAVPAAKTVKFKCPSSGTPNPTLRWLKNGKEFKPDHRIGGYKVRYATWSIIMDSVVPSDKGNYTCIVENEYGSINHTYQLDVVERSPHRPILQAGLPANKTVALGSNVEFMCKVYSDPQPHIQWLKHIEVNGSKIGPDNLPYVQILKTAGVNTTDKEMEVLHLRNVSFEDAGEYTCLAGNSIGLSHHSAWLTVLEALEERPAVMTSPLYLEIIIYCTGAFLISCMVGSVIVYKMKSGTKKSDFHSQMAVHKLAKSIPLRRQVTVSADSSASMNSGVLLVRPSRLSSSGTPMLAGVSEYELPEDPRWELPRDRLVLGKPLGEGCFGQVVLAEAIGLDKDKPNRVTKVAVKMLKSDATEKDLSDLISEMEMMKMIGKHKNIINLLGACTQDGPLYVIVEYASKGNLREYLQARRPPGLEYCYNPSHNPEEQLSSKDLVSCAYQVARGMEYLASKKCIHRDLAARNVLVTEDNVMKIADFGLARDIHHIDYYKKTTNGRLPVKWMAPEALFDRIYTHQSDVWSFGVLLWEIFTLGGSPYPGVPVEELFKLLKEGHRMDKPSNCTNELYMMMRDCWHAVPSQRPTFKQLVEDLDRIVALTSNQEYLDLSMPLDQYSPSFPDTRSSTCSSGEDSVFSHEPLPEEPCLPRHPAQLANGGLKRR
UniProt P09038, residues 143-288: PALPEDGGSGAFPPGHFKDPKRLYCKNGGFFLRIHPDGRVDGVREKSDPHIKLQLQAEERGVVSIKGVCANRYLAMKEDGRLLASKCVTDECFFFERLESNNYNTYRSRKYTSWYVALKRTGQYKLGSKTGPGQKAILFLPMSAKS

Key:
[1] = molecular target: FGFR1 D2-D3 (residues 142-365 of human FGFR1) (human) (UniProt P11362); assay: X-ray crystal structure, title of the coordinate table (Table 6)
[2] = molecular target: FGFR1 D2-D3 (residues 142-365 of human FGFR1) (human) (UniProt P11362); assay: X-ray crystal structure, title of the coordinate table (Table 1)
[3] = molecular target: FGFR1 D2-D3 (residues 142-365 of human FGFR1) (human) (UniProt P11362); assay: X-ray crystal structure at 3.0 Å of FGF2-FGFR1 crystals soaked with heparin decasaccharide
[4] = molecular target: FGFR1 D2-D3 (residues 142-365 of human FGFR1) (human) (UniProt P11362); assay: X-ray crystal structure of FGFR1 D2-D3/FGF2
[5] = molecular target: FGFR1 D2-D3 (residues 142-365 of human FGFR1) (human) (UniProt P11362); assay: refolded D2-D3 captured on heparin sepharose with immobilised FGF2; complex then purified by size exclusion chromatography
[6] = molecular target: FGFR1 D2-D3 (residues 142-365 of human FGFR1) (human) (UniProt P11362); assay: X-ray crystal structure, figure legend (FIG. 1)
[7] = molecular target: FGFR1 D2-D3 (residues 142-365 of human FGFR1) (human) (UniProt P11362); assay: X-ray crystal structure of the dimer of FGFR1 D2-D3/FGF2 complexes

Measured: binding

FGF2 (basic FGF) (from UniProt P09038 143-288) (ligand)
not listed: [7]
binds: all other assays above

FGFR1 D2-D3 (residues 142-365 of human FGFR1) (from UniProt P11362 149-359) (receptor)
binds: [7]
